The values that follow come from article PMC12043087.

By UniProt entry, the sequences of proteins in these tests, tags left out.
UniProt Q13547: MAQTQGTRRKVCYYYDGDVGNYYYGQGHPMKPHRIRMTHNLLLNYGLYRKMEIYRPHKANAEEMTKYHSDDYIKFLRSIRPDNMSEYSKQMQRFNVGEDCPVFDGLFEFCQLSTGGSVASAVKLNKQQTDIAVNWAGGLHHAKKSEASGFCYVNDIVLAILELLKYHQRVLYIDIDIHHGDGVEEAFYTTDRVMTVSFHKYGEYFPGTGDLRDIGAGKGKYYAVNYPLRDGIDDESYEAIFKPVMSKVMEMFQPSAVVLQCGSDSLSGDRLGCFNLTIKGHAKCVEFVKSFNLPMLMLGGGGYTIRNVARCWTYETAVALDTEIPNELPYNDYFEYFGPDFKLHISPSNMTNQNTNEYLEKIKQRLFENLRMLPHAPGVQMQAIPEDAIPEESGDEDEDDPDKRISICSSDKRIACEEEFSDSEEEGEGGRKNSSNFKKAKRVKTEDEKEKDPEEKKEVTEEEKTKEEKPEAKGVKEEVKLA
UniProt Q92769: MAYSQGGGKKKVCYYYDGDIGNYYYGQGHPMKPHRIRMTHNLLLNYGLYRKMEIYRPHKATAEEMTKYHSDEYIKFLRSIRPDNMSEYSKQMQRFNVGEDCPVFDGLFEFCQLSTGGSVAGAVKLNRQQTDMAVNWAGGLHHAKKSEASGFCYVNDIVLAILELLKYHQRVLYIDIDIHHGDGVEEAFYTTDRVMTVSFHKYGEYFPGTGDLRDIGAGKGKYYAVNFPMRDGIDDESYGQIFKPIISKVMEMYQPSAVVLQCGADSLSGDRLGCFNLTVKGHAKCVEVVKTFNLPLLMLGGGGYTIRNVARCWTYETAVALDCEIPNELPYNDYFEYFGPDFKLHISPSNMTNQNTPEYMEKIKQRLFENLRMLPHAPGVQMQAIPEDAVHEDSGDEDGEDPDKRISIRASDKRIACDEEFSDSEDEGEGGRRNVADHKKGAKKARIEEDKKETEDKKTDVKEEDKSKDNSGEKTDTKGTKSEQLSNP

Results are given in words; binding and its absence hold for the method and conditions named. Binding seen in cells or lysates may run through a third protein. Some binding calls cover weakened binding; strength is not graded here.

In this assay the target is T1, SMAD nuclear interacting protein 1 (SNIP1) (human (endogenous in hVSMCs)) (UniProt Q8TAD8).
T1 sequence: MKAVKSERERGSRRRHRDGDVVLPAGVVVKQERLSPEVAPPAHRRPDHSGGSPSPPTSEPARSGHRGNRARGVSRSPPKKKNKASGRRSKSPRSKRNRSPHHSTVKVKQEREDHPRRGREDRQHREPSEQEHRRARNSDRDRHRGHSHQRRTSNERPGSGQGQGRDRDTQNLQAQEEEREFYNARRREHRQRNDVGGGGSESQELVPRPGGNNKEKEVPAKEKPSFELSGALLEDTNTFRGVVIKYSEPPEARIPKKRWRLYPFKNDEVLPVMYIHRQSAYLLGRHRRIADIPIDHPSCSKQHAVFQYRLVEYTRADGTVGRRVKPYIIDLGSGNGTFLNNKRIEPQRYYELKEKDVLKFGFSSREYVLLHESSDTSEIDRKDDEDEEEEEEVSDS
Kind of assay: co-IP; endogenous proteins of hVSMCs; antigen sample/antibody mixture on Protein A/G magnetic beads, room temperature 1 hour, low-pH elution, Western blot; TET2 with HDAC1/2 also tested in cells pretransfected with Lenti-sh-Scr or Lenti-sh-SNIP1. In general terms: Immunoblotting shows a protein as a band on a membrane.

“histone deacetylase 1 (HDAC1) (from UniProt Q13547 1-482)”: the binding entry is reported as “binds”.

For “histone deacetylase 2 (HDAC2) (from UniProt Q92769 1-488)”, the binding entry is reported as “binds”.
